According to paper PMC4899616:

Target: BRP1-3xMyc (BRAT1 Partner 1, AT3G15120) (Arabidopsis thaliana)
Assay: affinity purification with mass spectrometry; Anti-c-Myc Agarose on lysate of BRP1-3xMyc transgenic plants (seedling or flower), 4 °C 2.5 h, Lysis buffer 50 mM Tris pH 7.6, 150 mM NaCl, 5 mM MgCl2, 10% glycerol, 0.1% NP-40; eluted with 0.1 M ammonium hydroxide; LTQ mass spectrometry

binding: binds
B1: BRAT1 (Bromodomain and ATPase domain-containing protein 1, AT1G05910), endogenous (protein, UniProt F4IAE9 1-1210)
chain: MHPKRSSQGDGSVTKPVRTSDRLRRRPKLHGRSYLYYSSPNMLHNRKRNTKTRTAASQIAKMLHKGNRPARASNAAPIASDLRRSTRKRRISVNLEDYTDSSGAEDEDMMSPAYRTLRRRVHKNFSTSKSRKDMDAELAPRREGLRPRRSTTIANKRLKTESGADQDTSEEKDGQDETENGNELDDADDGENEVEAEDEGNGEDEGDGEDEGEEDGDDDEEGDEEQEGRKRYDLRNRAEVRRMPTGEINKQQQPRSPRRVLHQGMGTRVGRDGRRGGSRPHKRHRFTRTDDSDDSLLVDELDQGPAIPWARGGNRSGAPWLFGGLDTYGSSSLGLNVGASGWGHQSDGLAALTSGVQTAGPSSKGGADIQPLQINEDINFDDIGGLSEYINDLKEMVFFPLLYPEFFASYSITPPRGVLLCGPPGTGKTLIARALACAASKAGQKVSFYMRKGADVLSKWVGEAERQLKLLFEEAQRNQPSIIFFDEIDGLAPVRSSKQEQIHNSIVSTLLALMDGLDSRGQVVLIGATNRVDAIDGALRRPGRFDREFNFSLPGCEARAEILDIHTRKWKHPPTRELKEELAATCVGYCGADLKALCTEAAIRAFREKYPQVYTSDDKYAIDVGLVNVEKSHFVEAMSAITPAAHRGSVVQSRPLSPVVLPCLHRHLLESMSLISDIFPSSATSSELTKLSILTFGSAIPLVYRPRLLLLGGEGVGLDHLGPAILHELEKFPIHSLGLPSLLSDPGAKTPEEALVHIFSEARRTTPSILYIPMFNNWWENAHEQLRAVFLTLLEELPSNLPILLLATSYGELSDMEEQSVFDNRSVYTVDKPSSEDRSLFFDRLIEAALSVISGLNGKPDGPQPLPELPKVPKEPTGPKPAEVKAKVEAEQHALRRLRMCLRDVCNRILYDKRFSAFHFPVTDEDAPNYRSIIQIPMDTATLLQRVDTGQYLTCTPFLQDVDLIVRNAKAYNGDDYAGARIVSRAYELRDVVHGMLSQMDPALLTYCDKIAAEGGPSLIPDDLSGSILGLAPVVQMGTVTRTSARLRNVQPEVNLDRDYEGLKKPKKTTDAVSIDSAADKSQNQDSGQEMPSPDAANPQSAAPSPTDGDREDQSEPPSKEASAEDMSGDSCKGPAAKSDKEISSRTESVKGVFMERTDNYSIPQMERLYTRIMKGVLETLDKGLRDDDNNPKHSILRFLSEFAQHQANF

No constants are given. Whether binding was seen depends on the method and setting. Binding seen in cells or lysates may run through a third protein. Here binding means that the protein was enriched with, or labelled near, the bait; the list need not be complete.
